Conditions: sodium heparin human plasma

CNC1(c2ccccc2Cl)CCCCC1=O (racemic) [ketamine, reference compound]
Lower limit of quantitation (LLOQ): 0.500 ng/mL

NC1(c2ccccc2Cl)CCCCC1=O (centres unmarked) [Norketamine]
Lower limit of quantitation (LLOQ): 0.500 ng/mL
